# Part of at least one peptide drawing is inferred or uncertain, most often the ends. No end group written: not given here.
# Sequences of proteins named here, by UniProt entry; tags and fusion partners are left off. Residues count along the entry.
# UniProt Q02388, 17-2944: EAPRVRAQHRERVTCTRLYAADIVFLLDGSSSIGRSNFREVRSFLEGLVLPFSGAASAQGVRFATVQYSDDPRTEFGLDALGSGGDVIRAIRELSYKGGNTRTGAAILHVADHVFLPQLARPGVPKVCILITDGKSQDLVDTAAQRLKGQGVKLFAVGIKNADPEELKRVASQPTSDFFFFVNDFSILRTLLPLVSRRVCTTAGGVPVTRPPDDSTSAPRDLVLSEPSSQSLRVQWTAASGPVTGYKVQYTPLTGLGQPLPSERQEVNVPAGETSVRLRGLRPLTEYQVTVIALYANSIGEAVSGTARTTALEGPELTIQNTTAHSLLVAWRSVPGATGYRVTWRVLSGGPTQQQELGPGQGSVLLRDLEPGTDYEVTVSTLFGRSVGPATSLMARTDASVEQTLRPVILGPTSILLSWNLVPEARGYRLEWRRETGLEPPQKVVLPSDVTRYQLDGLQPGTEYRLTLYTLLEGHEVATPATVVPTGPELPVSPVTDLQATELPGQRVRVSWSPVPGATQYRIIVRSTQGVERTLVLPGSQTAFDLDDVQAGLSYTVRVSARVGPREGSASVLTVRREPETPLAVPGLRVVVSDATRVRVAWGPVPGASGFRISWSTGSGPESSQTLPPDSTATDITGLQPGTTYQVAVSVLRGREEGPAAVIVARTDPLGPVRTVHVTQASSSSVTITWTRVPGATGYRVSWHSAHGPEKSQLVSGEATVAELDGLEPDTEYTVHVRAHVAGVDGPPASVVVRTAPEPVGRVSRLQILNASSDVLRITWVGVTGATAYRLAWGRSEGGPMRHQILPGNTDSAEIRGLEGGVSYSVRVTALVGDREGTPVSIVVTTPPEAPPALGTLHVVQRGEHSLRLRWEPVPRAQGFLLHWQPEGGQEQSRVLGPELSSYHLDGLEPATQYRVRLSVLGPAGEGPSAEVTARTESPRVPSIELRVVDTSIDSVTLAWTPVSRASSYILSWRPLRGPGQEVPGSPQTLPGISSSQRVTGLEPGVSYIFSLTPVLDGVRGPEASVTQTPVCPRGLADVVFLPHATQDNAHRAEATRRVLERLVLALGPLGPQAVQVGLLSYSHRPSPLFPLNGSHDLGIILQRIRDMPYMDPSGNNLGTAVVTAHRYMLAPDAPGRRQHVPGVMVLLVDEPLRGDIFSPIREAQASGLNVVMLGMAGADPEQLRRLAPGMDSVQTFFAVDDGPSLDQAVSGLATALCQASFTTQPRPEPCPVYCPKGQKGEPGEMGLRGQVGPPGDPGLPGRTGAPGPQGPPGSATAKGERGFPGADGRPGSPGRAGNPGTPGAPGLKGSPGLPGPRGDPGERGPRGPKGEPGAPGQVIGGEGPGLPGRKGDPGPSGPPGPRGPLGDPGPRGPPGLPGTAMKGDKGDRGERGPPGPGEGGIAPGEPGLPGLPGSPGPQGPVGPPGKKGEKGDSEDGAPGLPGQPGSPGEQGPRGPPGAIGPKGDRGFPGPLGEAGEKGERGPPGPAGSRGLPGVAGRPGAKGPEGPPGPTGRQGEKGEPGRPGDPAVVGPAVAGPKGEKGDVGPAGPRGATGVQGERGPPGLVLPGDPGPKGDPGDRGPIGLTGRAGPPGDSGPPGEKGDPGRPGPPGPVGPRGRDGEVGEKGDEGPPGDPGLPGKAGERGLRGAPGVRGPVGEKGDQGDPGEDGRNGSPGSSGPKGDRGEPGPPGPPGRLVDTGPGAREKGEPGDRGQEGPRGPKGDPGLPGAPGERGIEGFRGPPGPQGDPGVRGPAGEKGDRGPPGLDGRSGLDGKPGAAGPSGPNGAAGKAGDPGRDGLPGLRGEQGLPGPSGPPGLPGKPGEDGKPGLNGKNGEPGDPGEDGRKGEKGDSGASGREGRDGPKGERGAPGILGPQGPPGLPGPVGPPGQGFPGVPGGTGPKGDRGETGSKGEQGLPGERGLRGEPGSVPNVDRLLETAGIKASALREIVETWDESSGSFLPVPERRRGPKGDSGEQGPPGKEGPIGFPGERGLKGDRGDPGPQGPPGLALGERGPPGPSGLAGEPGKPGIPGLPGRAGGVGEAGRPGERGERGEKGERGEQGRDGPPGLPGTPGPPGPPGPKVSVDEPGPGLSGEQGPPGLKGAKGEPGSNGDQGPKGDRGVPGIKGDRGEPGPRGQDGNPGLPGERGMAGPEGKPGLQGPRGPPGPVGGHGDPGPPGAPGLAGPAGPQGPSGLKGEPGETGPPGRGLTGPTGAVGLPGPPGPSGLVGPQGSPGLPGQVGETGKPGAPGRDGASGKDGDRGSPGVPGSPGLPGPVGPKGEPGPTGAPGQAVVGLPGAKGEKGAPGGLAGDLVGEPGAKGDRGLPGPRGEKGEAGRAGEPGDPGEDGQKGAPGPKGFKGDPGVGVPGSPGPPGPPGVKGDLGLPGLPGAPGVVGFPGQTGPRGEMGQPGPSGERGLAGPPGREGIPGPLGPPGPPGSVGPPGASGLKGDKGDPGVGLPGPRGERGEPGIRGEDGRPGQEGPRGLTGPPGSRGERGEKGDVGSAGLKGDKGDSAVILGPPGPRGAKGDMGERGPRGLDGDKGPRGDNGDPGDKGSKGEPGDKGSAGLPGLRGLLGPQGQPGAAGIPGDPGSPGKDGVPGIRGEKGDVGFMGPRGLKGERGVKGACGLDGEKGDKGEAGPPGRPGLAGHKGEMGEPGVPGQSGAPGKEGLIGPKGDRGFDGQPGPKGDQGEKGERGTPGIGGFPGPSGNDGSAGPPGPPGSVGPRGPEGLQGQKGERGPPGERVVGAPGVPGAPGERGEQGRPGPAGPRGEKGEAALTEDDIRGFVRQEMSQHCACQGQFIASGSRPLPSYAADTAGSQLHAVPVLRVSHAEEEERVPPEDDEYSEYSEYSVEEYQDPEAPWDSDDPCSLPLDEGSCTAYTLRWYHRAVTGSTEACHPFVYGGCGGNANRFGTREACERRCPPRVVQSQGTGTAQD
# UniProt P02452, 162-1218: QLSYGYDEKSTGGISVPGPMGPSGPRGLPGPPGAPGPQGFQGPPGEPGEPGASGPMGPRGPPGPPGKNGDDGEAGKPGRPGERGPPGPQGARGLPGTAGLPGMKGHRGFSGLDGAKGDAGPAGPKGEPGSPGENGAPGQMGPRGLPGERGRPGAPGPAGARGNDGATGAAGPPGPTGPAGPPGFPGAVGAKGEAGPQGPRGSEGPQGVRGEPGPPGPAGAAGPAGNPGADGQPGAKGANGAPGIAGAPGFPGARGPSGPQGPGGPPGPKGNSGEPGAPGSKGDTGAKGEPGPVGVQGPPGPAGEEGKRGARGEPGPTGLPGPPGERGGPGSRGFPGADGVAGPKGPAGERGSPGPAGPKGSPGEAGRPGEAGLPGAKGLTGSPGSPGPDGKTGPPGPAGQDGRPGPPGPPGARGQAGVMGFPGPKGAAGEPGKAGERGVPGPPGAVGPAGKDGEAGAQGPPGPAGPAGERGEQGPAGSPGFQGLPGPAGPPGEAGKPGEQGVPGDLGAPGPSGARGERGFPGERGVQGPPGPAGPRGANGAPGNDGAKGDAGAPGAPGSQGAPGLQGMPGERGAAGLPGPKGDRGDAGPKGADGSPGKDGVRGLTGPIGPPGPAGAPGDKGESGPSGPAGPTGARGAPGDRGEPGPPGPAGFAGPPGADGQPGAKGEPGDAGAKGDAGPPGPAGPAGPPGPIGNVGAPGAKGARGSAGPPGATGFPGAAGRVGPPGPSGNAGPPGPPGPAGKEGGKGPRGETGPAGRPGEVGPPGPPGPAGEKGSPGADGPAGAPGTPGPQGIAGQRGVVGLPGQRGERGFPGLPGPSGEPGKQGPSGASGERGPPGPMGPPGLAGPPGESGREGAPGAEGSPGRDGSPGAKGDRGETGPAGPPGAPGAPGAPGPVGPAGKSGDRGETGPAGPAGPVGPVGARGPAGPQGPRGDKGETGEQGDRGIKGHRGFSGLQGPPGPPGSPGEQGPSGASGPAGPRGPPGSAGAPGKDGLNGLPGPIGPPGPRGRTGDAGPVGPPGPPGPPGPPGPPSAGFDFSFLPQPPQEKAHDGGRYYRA
# UniProt P08123, 80-1119: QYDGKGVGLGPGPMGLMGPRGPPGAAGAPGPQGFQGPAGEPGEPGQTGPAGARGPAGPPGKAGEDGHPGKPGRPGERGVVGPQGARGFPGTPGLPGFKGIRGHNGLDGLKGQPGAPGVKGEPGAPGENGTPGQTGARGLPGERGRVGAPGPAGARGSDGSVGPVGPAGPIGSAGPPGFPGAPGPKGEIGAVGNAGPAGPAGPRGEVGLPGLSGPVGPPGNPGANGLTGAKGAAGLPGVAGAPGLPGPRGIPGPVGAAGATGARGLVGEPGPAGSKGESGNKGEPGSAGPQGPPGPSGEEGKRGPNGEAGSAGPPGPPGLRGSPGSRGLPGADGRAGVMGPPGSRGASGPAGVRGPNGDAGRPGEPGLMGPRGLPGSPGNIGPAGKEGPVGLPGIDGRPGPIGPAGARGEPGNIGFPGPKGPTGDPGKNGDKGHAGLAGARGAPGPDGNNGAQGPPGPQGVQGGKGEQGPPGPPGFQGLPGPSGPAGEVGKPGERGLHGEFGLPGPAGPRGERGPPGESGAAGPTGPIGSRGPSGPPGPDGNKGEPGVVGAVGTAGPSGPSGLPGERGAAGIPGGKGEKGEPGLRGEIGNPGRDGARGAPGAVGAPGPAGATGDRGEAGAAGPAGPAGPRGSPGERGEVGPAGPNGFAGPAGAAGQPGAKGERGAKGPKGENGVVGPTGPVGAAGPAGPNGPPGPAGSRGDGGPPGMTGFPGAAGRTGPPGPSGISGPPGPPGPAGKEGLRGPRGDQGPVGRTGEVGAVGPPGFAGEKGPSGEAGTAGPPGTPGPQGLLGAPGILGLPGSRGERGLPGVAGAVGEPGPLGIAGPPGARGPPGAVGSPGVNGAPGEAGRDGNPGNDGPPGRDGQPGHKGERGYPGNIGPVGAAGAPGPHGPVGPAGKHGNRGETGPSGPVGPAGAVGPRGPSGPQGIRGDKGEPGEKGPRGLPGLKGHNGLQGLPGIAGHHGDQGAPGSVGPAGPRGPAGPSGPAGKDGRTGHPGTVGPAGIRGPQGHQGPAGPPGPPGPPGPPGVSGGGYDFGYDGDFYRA
# Key:
# type VII collagen [1] = biological target: T1, type VII collagen (Homo sapiens, UniProt Q02388); assay: Slot blotting, binding ability to type VII collagen (Experimental Example 1); details: peptide at 5, 10 and 20 μg/mL, FIG. 2
# T1 construct: purchased MyBioSource, Inc. MBS2018615
# Description: Slot blotting was performed to confirm the ability of the peptides of SEQ ID NOS: 1 and 3 to bind to type VII collagen. The NC membrane was activated with TBST, and the peptides of SEQ ID NOS: 1 and 3 were placed in each well at different concentrations (5, 10, and 20 μg/mL) and allowed to bind to the NC membrane in a vacuum for 2 hours. A 1% solution of type VII collagen (MyBioSource, Inc., San Diego, CA, USA, MBS2018615) was added to the peptide-bound membrane and allowed to bind to the membrane in a vacuum for 2 hours. After washing the membrane with TBST, the membrane to which the peptide and type VII collagen were attached was allowed to react with a primary rabbit anti-human type VII collagen antibody (MyBioSource, Inc., San Diego, CA, USA, MBS2004594) at a dilution ratio of 1:800 and with a secondary antibody goat anti-rabbit Ig G (BETHYL Lab., Montgomery, TX, USA, A90-116P) at a dilution ratio of 1:5000. The reacted membrane was washed with TBST, and a chemiluminescence test was performed using WEST-one. Based on the results of measurement of the ability of the peptide to bind to type VII collagen depending on the peptide concentration, when the concentration of the peptide of SEQ ID NO: 1 was 10 μg/mL or more or the concentration of the peptide of SEQ ID NO: 3 was 5 μg/mL or more, the ability thereof to bind to type VII collagen was confirmed (FIG. 2).
# type VII collagen [2] = biological target: T1, type VII collagen; assay: Slot blotting, selectivity to collagen types: type VII (Experimental Example 2); format: binding
# Description: (§1) In order to confirm the selectivity of peptides of SEQ ID NOS: 1 to 3 to collagen types, slot blotting was performed for types I, IV and VII collagen. The NC membrane was activated with TBST, and the peptides of SEQ ID NOS: 1, 2 and 3 were placed in each well at different concentrations (5, 10, 25, 50, and 100 μg/mL) and allowed to bind to the NC membrane in a vacuum for 2 hours. A 1% solution of each of types I, IV and VII collagen (MyBioSource, Inc., San Diego, CA, USA, MBS2018615) was added to the peptide-bound membrane and allowed to bind to the membrane in a vacuum for 2 hours. The membrane was washed with TBST, and the membrane to which the peptides and types I, IV, and VII collagen were attached was allowed to react with a primary rabbit anti-human type VII collagen antibody (MyBioSource, Inc., San Diego, CA, USA, MBS2004594) at a dilution ratio of 1:800 and with a secondary antibody goat anti-rabbit Ig G (BETHYL Lab., Montgomery, TX, USA, A90-116P) at a dilution ratio of 1:5000. The reacted membrane was washed with TBST, and a chemiluminescence test was performed using WEST-one.
# type I collagen = biological target: T2, type I collagen (Homo sapiens, UniProt P02452+P08123); assay: Slot blotting, selectivity to collagen types: type I (Experimental Example 2); format: binding; details: peptide at 5, 10, 25, 50 and 100 μg/mL, FIG. 3
# T2 construct: purchased MyBioSource, Inc
# Description: as §1
# type IV collagen = assay: Slot blotting, selectivity to collagen types: type IV (Experimental Example 2); format: binding; details: peptide at 5, 10, 25, 50 and 100 μg/mL, FIG. 3
# Description: as §1
# E-cadherin = assay: Real-time RT-PCR of wound-healing marker E-cadherin in colonic epithelial cells; format: cell-based; details: Caco-2 cells; 50 and 100 μg/ml; 3 days; FIG. 4
# Description: (§2) In order to confirm the expression level of the wound-healing marker in colonic epithelial cells (Caco-2 cell, ATCC® HTB-37™) by the peptide according to the present invention, colonic epithelial cells were dispensed in an amount of 5×10^6 cells/well in a 6-well plate and then cultured for 24 hours in DMEM (Dulbecco's Modified Eagle Medium, Gibco). The cells were treated with the peptides of SEQ ID NOS: 1, 2, and 3 at concentrations of 50 and 100 μg/ml and then cultured for up to 3 days. After 3 days, the cells were harvested and the gene expression levels of E-cadherin protein, which is highly expressed in colonic epithelial cells, and ZO-1 protein, which is highly expressed at the tight junction between colonic epithelial cells, were measured through real-time RT-PCR.
# (§3) RNA was extracted from the obtained cells using TRIzol, and cDNA was synthesized using a kit from Thermo Scientific (cat. No. K1641). The same amount of cDNA was amplified by 40 cycles at 95° C.-60° C. using a SYBR green PCR master mix and a StepOnePlus™ Real-Time PCR System available from Applied Biosystems, and the ΔΔct values of individual groups were compared. The nucleotide sequences of the PCR primers used for amplification of each gene are as follows.
# ZO-1 [3] = assay: Real-time RT-PCR of wound-healing marker ZO-1 in colonic epithelial cells; format: cell-based; details: Caco-2 cells; 50 and 100 μg/ml; 3 days; FIG. 4
# Description: as §2, §3
# [4] = tested on: colonic epithelial cells (Caco-2 cell); assay: Proliferation of colonic epithelial cells (CCK-8); format: cell-based; details: 100 μM, 3rd day, FIG. 5
# Description: In order to confirm the proliferation and migration in colonic epithelial cells (Caco-2 cell, ATCC® HTB-37™) by the peptide according to the present invention, the cells were dispensed in an amount of 5×10^3 cells/well in a 96-well plate and then cultured for 24 hours in DMEM (Dulbecco's Modified Eagle Medium, Gibco). The peptides (SEQ ID NOS: 1, 2, and 3) were dispensed at a concentration of 100 μM in the cells and then cultured for up to 3 days at intervals of 1 day. The cell count was measured using a CCK-8 (Cell Counting Kit-8, CK04, Dojindo Lab.). After 1, 2, and 3 days, the medium containing the peptide was removed, 10% of a CCK-8 solution was added to fresh DMEM, and 100 μl thereof was then dispensed. After 1 hour and 30 minutes, absorbance was measured at 450 nm.
# Caco-2 cells = assay: Scratch migration of colonic epithelial cells; format: cell-based; details: Caco-2 scratch, 100 μM, FIG. 6
# Description: In order to measure cell migration ability, Caco-2 cells (1×10^6 cells) were placed in a 6-well plate and cultured in DMEM supplemented with 10% fetal bovine serum (FBS) and 1% antibiotic-antimycotic solution (Gibco, Grand Island, N.Y., USA). The cells were washed with PBS and allowed to stand overnight in a medium containing 2% FBS. The central portion of the cell layer was scratched using a sterile 200 μl plastic pipette tip. The scratched cell layer was washed twice with PBS to remove unadhered cells. Each of the peptides of SEQ ID NOS: […] at a concentration of 100 μM to the medium, followed by culture for up to 48 hours. The extent of cell migration toward the center from the scratched edges was measured using an Olympus CKX41 inverted microscope (magnification: ×20).
# [5] = tested on: DSS-induced acute inflammatory bowel disease; assay: Therapeutic effect in animal model of DSS-induced acute inflammatory bowel disease; format: in vivo, ICR mice
# Description: In order to confirm the therapeutic effect of the synthesized peptide in animals, acute inflammatory bowel disease was induced with DSS in ICR mice (Orient Bio), and simultaneously, the synthesized peptide was injected thereto. Inflammation was induced in mice using 5% DSS as drinking water for 7 days, and simultaneously, the synthesized peptide was IP-injected thereto. The normal group (Normal, n=6) was not treated with DSS, and in the untreated group (No treatment, n=6), only DSS was used, and no drug was injected. The positive control group (SAHA, Sigma-Aldrich, 25 mg/kg, n=6), the immunomodulatory control group (Anti-TNF-a antibody, Pfizer, 1 mg/kg, n=6), and the peptide of SEQ ID NO: 1 (50 mg/kg, n=6) were injected once daily. After 7 days, mice were sacrificed by CO2 hyperventilation, the colons were collected, and the lengths thereof were compared. Additionally, the tissue was fixed and processed to prepare a paraffin block, and H&E staining was performed to determine whether the intestinal tissue was damaged.
# [6] = tested on: DSS-induced chronic inflammatory bowel disease; assay: Therapeutic effect in animal model of DSS-induced chronic inflammatory bowel disease; format: in vivo, ICR mice
# Description: In order to confirm the therapeutic effect of the synthesized peptide in animals, chronic inflammatory bowel disease was induced with DSS in ICR mice (Orient Bio). 1.5% DSS was used as drinking water for 7 days, water not containing DSS was provided for the next 7 days, and 1.5% DSS was used as drinking water for the next 7 days (FIG. 9A). Thereafter, the peptide of SEQ ID NO: 1 was administered through SC injection. The normal group (Normal, n=9) was not treated with DSS, and the untreated group (Untreated, n=9) was treated only with DSS, and no drug was injected. The positive control group (Infliximab, 5 mg/kg, n=9) and the peptide of SEQ ID NO: 1 (30 mg/kg, n=9) were injected once daily for 14 days. 28 days after the start of DSS administration, the animals were sacrificed by CO2 hyperventilation, the colons were collected, and the lengths thereof were compared. Additionally, the tissue was fixed and processed to prepare a paraffin block, and H&E staining was performed to determine whether the intestinal tissue was damaged.
# integrin beta 1 [7] = biological target: T3, integrin beta 1 (Homo sapiens, UniProt P05556); assay: Immunoprecipitation assay for integrin proteins in HT29 cells; format: binding; details: biotin-labeled peptide 200 and 400 μg/ml, 1 hour, FIG. 10
# T3 construct: Colonic epithelial cells (HT29 cell, ATCC® HTB-38™) were dispensed; endogenous in cells; host or cells: HT29 (ATCC HTB-38)
# integrin beta 1 [8] = assay: Western blot of signal transduction in HT29 cells: integrin beta 1; format: cell-based; details: 50, 100, 200 μM with DSS for 30 min, dose dependently, FIG. 12
# pFAK = assay: Western blot of signal transduction in HT29 cells: pFAK; format: cell-based; details: 50, 100, 200 μM with DSS for 30 min, dose dependently, FIG. 12
# RhoA = assay: Western blot of signal transduction in HT29 cells: RhoA; format: cell-based; details: 50, 100, 200 μM with DSS for 30 min, dose dependently, FIG. 12
# ZO-1 [9] = assay: Western blot of signal transduction in HT29 cells: ZO-1; format: cell-based; details: 50, 100, 200 μM with DSS for 30 min, dose dependently, FIG. 12
# Occludin = assay: Western blot of signal transduction in HT29 cells: Occludin; format: cell-based; details: 50, 100, 200 μM with DSS for 30 min, dose dependently, FIG. 12
substance,measurement,setting,value
YGLRSKSKKFRRPDIQYPDAT-NH2 (C-terminus assumed) [SEQ ID NO: 1],peptide concentration at which the ability to bind to type VII collagen was confirmed,type VII collagen [1],≥ 10 µg/mL
same,selectivity to type VII collagen versus types I and IV collagen,type VII collagen [2],higher selectivity to type VII collagen
same,peptide concentration at which binding to type VII collagen was observed,"type VII collagen [2]; peptide at 5, 10, 25, 50 and 100 μg/mL, FIG. 3",at least 5 μg/mL
same,peptide concentration at which binding to type I collagen was observed,type I collagen,50 µg/mL
same,peptide concentration at which binding to type IV collagen was observed,type IV collagen,100 µg/mL
same,gene expression of E-cadherin,E-cadherin,increased with an increase in the concentration of the peptide
same,gene expression of ZO-1,ZO-1 [3],increased with an increase in the concentration of the peptide
same,cell proliferation rate compared to the control group (cells not treated with the peptide),[4],60%
same,migration area,Caco-2 cells; 2nd day,65%
same,cell migration compared to cells not treated with the peptide,Caco-2 cells; up to 48 hours,increased cell migration
same,colon length,"[5]; 5% DSS 7 days, IP once daily, SEQ ID NO: 1 50 mg/kg, SAHA 25 mg/kg, antibody 1 mg/kg, p<0.05 vs untreated, FIG. 8",maintained the colon length
same,inflammatory cells in the intestinal mucosa (H&E histology),"[5]; acute DSS model, FIG. 8 part c",significantly decreased
same,villi structure (H&E histology),"[5]; acute DSS model, FIG. 8 part c",villi structure was maintained well
same,histopathological inflammation index of colon tissue,[6]; FIG. 9F,statistically significantly decreased inflammation index compared to infliximab
same,inflammatory cells in the intestinal mucosa (H&E histology),[6]; FIG. 9G,significantly decreased
same,villi structure (H&E histology),[6]; FIG. 9G,villi structure was maintained well
same,colon length compared with infliximab,"[6]; SEQ ID NO: 1 30 mg/kg SC, FIG. 9D",longer
same,colon length,"[6]; SEQ ID NO: 1 30 mg/kg SC, infliximab 5 mg/kg, once daily 14 days, p<0.05 vs untreated, FIG. 9D",maintained the colon length
same,disease activity index (DAI),"[6]; compared to infliximab, p<0.05, FIG. 9E",statistically significantly inhibited disease compared to infliximab
same,"selectivity to integrin beta 1 versus other integrin proteins (beta 3, beta 7, alpha 4)",integrin beta 1 [7],higher selectivity to integrin beta 1 than other integrin proteins
same,protein expression of integrin beta 1,integrin beta 1 [8],increased
same,protein expression of pFAK,pFAK,increased
same,protein expression of RhoA,RhoA,increased
same,protein expression of ZO-1 (tight junction marker),ZO-1 [9],increased
same,protein expression of Occludin (tight junction marker),Occludin,increased

# Reference: US12545704B2, “Peptide for treating inflammation and wounds” (NIBEC CO., LTD., priority 2019, dated 2026)
